Measurements taken from patent US12025619B2, “Methods and systems for detecting prostaglandins by LC-MS/MS” (Laboratory Corporation of America Holdings, priority 2020, dated 2024).

Experiments:
[1] = Selectivity: potential interferents in presence of Prostaglandin D2, serum SPE-LC-MS/MS (6% BSA); settings: 6% BSA spiked with PGD2 and interferent; for Measured Concentration of Prostaglandin D2 with interferent: singlicate
[2] = Selectivity: potential interferents in presence of Prostaglandin D2, urine SPE-LC-MS/MS; settings: charcoal stripped human urine spiked with Prostaglandin D2 and interferent, singlicate
[3] = Specificity: potential interferents in blank matrix, serum SPE-LC-MS/MS (6% BSA); settings: apparent Prostaglandin D2 in blank 6% BSA spiked with interferent at 1000 pg/mL, singlicate
[4] = Specificity: potential interferents in blank matrix, urine SPE-LC-MS/MS; parameters: species or system human; settings: for Specificity, recovered (percent cross-reaction): blank matrix spiked with interferent, urine assay, singlicate
[5] = Sample precision, human serum; settings: for Intra-assay Mean Measured Concentration: batches 2-5
[6] = Spike and recovery, human serum and 6% BSA; settings: for Mean Conc.: 6% BSA; for Mean: human serum
[7] = Reference interval, human serum
[8] = interferent spiked at 1000 pg/mL in charcoal stripped human urine (blank matrix), read as Prostaglandin D2

CCCCC[C@H](O)C/C=C1/C(=O)C=C[C@@H]1C/C=C\CCCC(=O)O [Specificity 4, Δ12-Prostaglandin J2]
Measured Concentration of Prostaglandin D2 with interferent [1]: 9.30 pg/mL | Measured Concentration of Prostaglandin D2 with interferent [2]: 17.8 pg/mL

CCCCC[C@H](O)/C=C/[C@@H]1[C@@H](C/C=C\CC(=O)O)[C@@H](O)C[C@@H]1O [2,3-dinor-11β-Prostaglandin F2α]
Measured Concentration [3]: 0 pg/mL | Measured Concentration [4, 8]: 0.176 pg/mL

CCCCCC(=O)CC[C@@H]1[C@@H](C/C=C\CCCC(=O)O)[C@@H](O)C[C@@H]1O [listing 1 of 2 here]
Measured Concentration [4, 8]: 0.191 pg/mL

CCCCC[C@H](O)/C=C/[C@H]1C(=O)C[C@H](O)[C@@H]1C/C=C/CCCC(=O)O (relative stereo) [Specificity 7, 5-trans Prostaglandin D2]
Measured Concentration of Prostaglandin D2 with interferent [1]: 53.2 pg/mL | Measured Concentration of Prostaglandin D2 with interferent [2]: 19.1 pg/mL

O=C(O)CCCCC(=O)CC[C@H]1C(=O)C=C[C@@H]1CCC(=O)O [tetranor-PGJM]
Measured Concentration [3]: 0 pg/mL | Measured Concentration [4, 8]: 0.228 pg/mL

CCCCC[C@H](O)/C=C/[C@@H]1[C@@H](C/C=C\CCCC(=O)O)[C@@H](O)C[C@H]1O [Prostaglandin F2α]
Measured Concentration [4, 8]: 0.541 pg/mL

CCCCC[C@@H](O)/C=C/[C@H]1C(=O)C[C@H](O)[C@@H]1C/C=C\CCCC(=O)O [Specificity 13, 15(R)-Prostaglandin D2]
Measured Concentration of Prostaglandin D2 with interferent [1]: 4230 pg/mL | Measured Concentration of Prostaglandin D2 with interferent [2]: 653 pg/mL | Specificity, recovered (percent cross-reaction) [4]: 31.3% | Measured Concentration [4, 8]: 313 pg/mL

CCCCC[C@H](O)/C=C/[C@@H]1[C@H](C/C=C\CCCC(=O)O)[C@@H](O)C[C@H]1O [8-isoProstaglandin F2 α]
Measured Concentration [3]: 0 pg/mL

CCCCCC(=O)CC[C@@H]1[C@@H](C/C=C\CCCC(=O)O)[C@@H](O)C[C@@H]1O [Specificity 6, 11b-13,14-dihydro-15-keto Prostaglandin F2a]
Measured Concentration of Prostaglandin D2 with interferent [1]: 9.92 pg/mL | Measured Concentration of Prostaglandin D2 with interferent [2]: 19.6 pg/mL

CCCCC[C@@H](O)/C=C/[C@H]1[C@H](C/C=C\CCCC(=O)O)[C@H](O)C[C@@H]1O [ent-Prostaglandin F2 α]
Measured Concentration [3]: 0.749 pg/mL

CCCCC[C@H](O)C/C=C1/C(=O)C[C@H](O)[C@@H]1C/C=C\CCCC(=O)O [Specificity 11, Δ12-Prostaglandin D2]
Measured Concentration of Prostaglandin D2 with interferent [1]: 1990 pg/mL | Measured Concentration of Prostaglandin D2 with interferent [2]: 164 pg/mL | Specificity, recovered (percent cross-reaction) [4]: 14.7% | Measured Concentration [4, 8]: 147 pg/mL

O=C(O)CCCCC(=O)CC[C@H]1C(=O)C[C@H](O)[C@@H]1CCC(=O)O [Specificity 3, PGDM]
Measured Concentration of Prostaglandin D2 with interferent [1]: 9.84 pg/mL | Measured Concentration of Prostaglandin D2 with interferent [2]: 18.9 pg/mL | Measured Concentration [3]: 0 pg/mL | Measured Concentration [4, 8]: 0.228 pg/mL

CCCCC/C=C/C=C1C(=O)C[C@H](O)[C@@H]1C/C=C\CCCC(=O)O [15-deoxy-Δ12,14-Prostaglandin D2]
Measured Concentration [3]: 4.63 pg/mL | Measured Concentration [4, 8]: 0.348 pg/mL

CCCCC[C@@H](O)/C=C/[C@H]1[C@H](C/C=C\CCCC(=O)O)[C@H](O)C[C@@H]1O [ent-Prostaglandin F2α]
Measured Concentration [4, 8]: 0.495 pg/mL

O=C(O)CCCCC(=O)CC[C@H]1C(=O)C=C[C@@H]1CCC(=O)O [Specificity 5, tetranor-PGJM]
Measured Concentration of Prostaglandin D2 with interferent [1]: 8.50 pg/mL | Measured Concentration of Prostaglandin D2 with interferent [2]: 16.4 pg/mL

CCCCC[C@@H](O)/C=C/[C@H]1[C@H](C/C=C\CCCC(=O)O)[C@H](O)C[C@@H]1O [Specificity 12, ent-Prostaglandin F2a]
Measured Concentration of Prostaglandin D2 with interferent [1]: 10.8 pg/mL | Measured Concentration of Prostaglandin D2 with interferent [2]: 18.5 pg/mL

CCCCC[C@H](O)/C=C/[C@@H]1[C@@H](C/C=C\CC(=O)O)[C@@H](O)C[C@@H]1O [Specificity 1, 2,3-dinor-11b-Prostaglandin F2a]
Measured Concentration of Prostaglandin D2 with interferent [1]: 8.41 pg/mL | Measured Concentration of Prostaglandin D2 with interferent [2]: 17.5 pg/mL

CCCCC[C@H](O)/C=C/[C@H]1[C@H](O)CC(=O)[C@@H]1C/C=C\CCCC(=O)O [Prostaglandin E2]
Measured Concentration ([4]; interferent spiked at 352.5 pg/mL (so in the source) in charcoal stripped human urine): No Peak

CCCCCC(=O)CC[C@H]1C(=O)C[C@H](O)[C@@H]1C/C=C\CCCC(=O)O [13,14-dihydro-15-keto Prostaglandin D2]
Measured Concentration [3]: 0.0169 pg/mL | Measured Concentration [4, 8]: 0.136 pg/mL

CCCCC[C@H](O)/C=C/[C@H]1C(=O)C[C@H](O)[C@@H]1C/C=C/CCCC(=O)O [5-trans Prostaglandin D2]
Measured Concentration [4, 8]: 25.2 pg/mL

CCCCC[C@H](O)/C=C/[C@H]1C(=O)C[C@H](O)[C@@H]1C/C=C\CCCC(=O)O [PGD2, prostaglandin D2]
Intra-assay Mean Measured Concentration ([5]; QC1: SPGQC1, Lot 20205, human serum): 23.7 pg/mL and 23.22 pg/mL and 24.77 pg/mL | Inter-assay Mean Measured Concentration ([5]; QC1: SPGQC1, human serum): 23.9 pg/mL | Intra-assay Mean Measured Concentration ([5]; QC2: SPGQC2, Lot 20205, human serum): 183.2 pg/mL and 211.0 pg/mL and 215.2 pg/mL | Inter-assay Mean Measured Concentration ([5]; QC2: SPGQC2, human serum): 203.1 pg/mL | Intra-assay Mean Measured Concentration ([5]; QC3: SPGQC3, Lot 20205, human serum): 488.5 pg/mL and 478.3 pg/mL and 581.5 pg/mL | Inter-assay Mean Measured Concentration ([5]; QC3: SPGQC3, human serum): 516.1 pg/mL | Intra-assay Mean Measured Concentration ([5]; QC4: SPGQC4, Lot 20205, human serum): 821.7 pg/mL and 997.7 pg/mL and 989.5 pg/mL | Inter-assay Mean Measured Concentration ([5]; QC4: SPGQC4, human serum): 936.3 pg/mL | Mean Conc. ([6]; 0.0 pg/mL added to baseline): 9.00 pg/mL | Mean Conc. ([6]; 6.0 pg/mL added to baseline): 14.9 pg/mL | Mean Conc. ([6]; 200.0 pg/mL added to baseline): 207.3 pg/mL | Mean Conc. ([6]; 600.0 pg/mL added to baseline): 679.0 pg/mL | Mean ([6]; 0.0 pg/mL added to baseline): 12.23 pg/mL | Mean ([6]; 6.0 pg/mL added to baseline): 19.6 pg/mL | Mean ([6]; 200.0 pg/mL added to baseline): 191.3 pg/mL | Mean ([6]; 600.0 pg/mL added to baseline): 661.0 pg/mL | Measured Concentration (replicates) ([6]; low level Prostaglandin D2 in 6% BSA, 0.0 pg/mL added to baseline): 8.62 pg/mL and 8.39 pg/mL and 10.00 pg/mL | Measured Concentration (replicates) ([6]; low level Prostaglandin D2 in 6% BSA, 6.0 pg/mL added to baseline): 14.2 pg/mL and 15.6 pg/mL and 15.0 pg/mL | Measured Concentration (replicates) ([6]; low level Prostaglandin D2 in 6% BSA, 200.0 pg/mL added to baseline): 214.0 pg/mL and 210.0 pg/mL and 198.0 pg/mL | Measured Concentration (replicates) ([6]; low level Prostaglandin D2 in 6% BSA, 600.0 pg/mL added to baseline): 667.0 pg/mL and 658.0 pg/mL | Measured Concentration (replicates) ([6]; low level Prostaglandin D2 in human serum, 0.0 pg/mL added to baseline): 13.80 pg/mL and 10.60 pg/mL and 12.30 pg/mL | Measured Concentration (replicates) ([6]; low level Prostaglandin D2 in human serum, 6.0 pg/mL added to baseline): 17.4 pg/mL and 17.0 pg/mL | Measured Concentration (replicates) ([6]; low level Prostaglandin D2 in human serum, 200.0 pg/mL added to baseline): 186.0 pg/mL (2×) and 202.0 pg/mL | Measured Concentration (replicates) ([6]; low level Prostaglandin D2 in human serum, 600.0 pg/mL added to baseline): 668.0 pg/mL and 605.0 pg/mL | Reference interval, Prostaglandin D2 Concentration in serum ([7]; 97.5th percentile, normal human serum samples): 1.6 to 57 pg/mL | Mean Concentration ([7]; mean of the human serum reference interval samples): 15.750 ng/mL

CCCCC[C@H](O)/C=C/[C@@H]1[C@H](C/C=C\CCCC(=O)O)[C@@H](O)C[C@H]1O [8-isoProstaglandin F2α]
Measured Concentration [4, 8]: 0.227 pg/mL

CCCCCC(=O)CC[C@@H]1[C@@H](C/C=C\CCCC(=O)O)[C@@H](O)C[C@@H]1O [listing 2 of 2 here]
Measured Concentration [3]: 0 pg/mL

CCCCCC(=O)CC[C@H]1C(=O)C[C@H](O)[C@@H]1C/C=C\CCCC(=O)O [Specificity 2, 13,14-dihydro-15-keto Prostaglandin D2]
Measured Concentration of Prostaglandin D2 with interferent [1]: 9.23 pg/mL | Measured Concentration of Prostaglandin D2 with interferent [2]: 15.5 pg/mL

CCCCC[C@H](O)/C=C/[C@@H]1[C@H](C/C=C\CCCC(=O)O)[C@@H](O)C[C@H]1O [Specificity 9, 8-isoProstaglandin F2a]
Measured Concentration of Prostaglandin D2 with interferent [1]: 8.50 pg/mL | Measured Concentration of Prostaglandin D2 with interferent [2]: 16.3 pg/mL

CCCCC/C=C\C=C1\C(=O)C[C@H](O)[C@@H]1C/C=C\CCCC(=O)O [Specificity 10, 15-deoxy-Δ12,14-Prostaglandin D2]
Measured Concentration of Prostaglandin D2 with interferent [1]: (14.3) pg/mL | Measured Concentration after subtraction of concentration recovered in specificity testing ([1]; 4.63 subtracted): −4.63 = 9.67 pg/mL | Measured Concentration of Prostaglandin D2 with interferent [2]: 15.7 pg/mL

CCCCC[C@H](O)/C=C/[C@@H]1[C@@H](C/C=C\CCCC(=O)O)[C@@H](O)C[C@H]1O [Specificity 8, Prostaglandin F2a]
Measured Concentration of Prostaglandin D2 with interferent [1]: 9.38 pg/mL | Measured Concentration of Prostaglandin D2 with interferent [2]: 19.0 pg/mL

CCCCC[C@H](O)C/C=C1/C(=O)C=C[C@@H]1C/C=C\CCCC(=O)O [Δ12-Prostaglandin J2]
Measured Concentration [4, 8]: 0.191 pg/mL

CCCCC[C@H](O)/C=C/[C@H]1[C@H](O)CC(=O)[C@@H]1C/C=C\CCCC(=O)O [Specificity 14, Prostaglandin E2]
Measured Concentration of Prostaglandin D2 with interferent [1]: 8.32 pg/mL | Measured Concentration of Prostaglandin D2 with interferent [2]: 15.1 pg/mL

Values joined by “and” are separate entries in the source; they are usually repeats but may differ in a detail not shown here. Equal values may be shown once.
